Data from PubChem BioAssay (NCATS).
The inconclusive results got no clear call from the source; some entries with a clear call stand among them for comparison. Potencies of inconclusive entries are doubtful fits and often do not repeat. Calls of active or inactive are those of the source. The call rests on the fitted dose curve; in most records, active means well fitted cell-killing curve with a large enough effect; inconclusive means small, poorly fitted or top-dose-only effect, or effect the other way, or another doubt; inactive means no such curve, though single readings can be large or run the other way.

Assay: Identifying Small Molecule Inhibitors of Pancreatic Cancer Stem Cells (Panc1, Spheroid) (AID 1259359);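 further: compound exposure lasted 48 h before reading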
Conditions: Panc1 spheroid cancer stem cell viability; viability, % of control: at 46.1 µM (top of the series)
From the text: Progenitor-like cancer cells, often referred to as cancer stem cells (CSC), are believed to be the drivers of therapeutic resistance and rapid recurrence. CSCs are postulated to reside in specific niches characterized by low oxygen tension, limited nutrient supply, and high redox load. Selectively targeting CSC, alone or in combination with cytotoxic agents, as a means to produce durable remissions is an appealing concept. Modeling these cells in in vitro setting is an important step in finding new therapies and/or targets. Multiple reports highlight that forcing cells in culture into 3-dimensionaly architectures (spheroids) re-establishes key progenitor-like transcriptional signatures. Pancreatic cancer is among the diseases with the most dismal outlook which is driven, largely, by recurance following front-line therapies. […] In hopes of deriving new insight into the targeting of these pancreatic CSCs we examined three established pancreatic cancer cell lines in cytotoxicity assays versus a collection of approved and investigational drugs. Importantly, we screened these lines as traditional monolayer (2D) and spheroid (3D) formats to gain an appreciation of agents with differential activity.
Multicellular tumor spheroids from Panc1, MiaPaCa-2, and the primary low-passage tissue culture line SB.06 were seeded in stem cell media (SCM) in nonadherent 6-well plates coated with hydrogel (Corning Life Sciences, Chelmsford, Mass) and pancreatic spheres generated for 14 days before screening. Cells were seeded into 1536-well solid-bottom white tissue culture treated Greiner Bio One Plates (789173-F) using a MultiDrop Combi (Thermofisher Scientific) dispenser and a small sterile cassette. One column was media alone to be used as a :"no cells" control. The plates were then covered with sterilized stainless steel gasketed lids from Kalypsys. After allowing cells to attach for 4 hours, 23 nL of test compound or control (negative control DMSO and positive control 9.2 uM Bortezomib-final) were added from a 1536-well polypropylene compound source plate to each well using a 1536 head pin tool from Kalypsys. Cells were then incubated for 48 hours at 37C, 95% relative humidity and 5% CO2. After 48 hours, plates were removed from the incubator and 3 uL of CellTiter-Glo (Promega) was added using an Aurora Flying Reagent Dispenser Bioraptor. Plates were incubated at room temperature for 10 minutes prior to reading the luminescence on the Viewlux (PerkinElmer). The relative luciferase units are used to calculate the percent activity using the activity of DMSO in the cells and no cells columns for normalization of no inhibition and full inhibition respectively.
Potency means the concentration at half of the fitted maximal effect.

Compound | viability, % of control | Potency
CS(=O)c1ccc(-c2nc(-c3ccc(F)cc3)c(-c3ccncc3)[nH]2)cc1 (stereo not given) | inconclusive: 91.1% | –
COc1ccc(C2CC(c3ccccc3)=NN2c2ccc(S(N)(=O)=O)cc2)cc1 (stereo not given) | inconclusive: 68.8% | –
CC(C)C[C@@H](C(=O)N[C@H](C(=O)OC1CCCC1)c1ccccc1)[C@H](O)C(=O)NO | – | inconclusive: 0.59 µM [cytotoxic, full curve, poor fit]
CNCc1ccc(-c2[nH]c3cc(F)cc4c3c2CCNC4=O)cc1 | inconclusive: 84.7% | –
CC1(C)OC2=C(C(=O)c3ccccc3C2=O)[C@H](NCc2ccccc2)[C@H]1O | – | active: 0.743 µM
Cn1ccc2cc3c(cc21)CCN3C(=O)Nc1cccnc1 | inconclusive: 120% | –
C[C@@H]1CN(Cc2ccc(F)cc2)[C@@H](C)CN1C(=O)c1cc2c(C(=O)C(=O)N(C)C)cn(C)c2cc1Cl | inconclusive: 135% | –
Cc1cnc(Nc2ccc(OCCN3CCCC3)cc2)nc1Nc1cccc(S(=O)(=O)NC(C)(C)C)c1 | – | inconclusive: 0.059 µM [rising, full curve, poor fit]
COc1cccc2c1CCCC2CCCN1CCN(C2CCCCC2)CC1 (stereo not given) | – | inconclusive: 0.118 µM [cytotoxic, full curve, poor fit]
Cc1ccccc1C(C(=O)NC1CCCC1)N(C(=O)Cn1cnc2ccccc21)c1cccc(F)c1 (stereo not given) | – | inconclusive: 2.96 µM [cytotoxic, full curve, poor fit]
Cc1ccc(NC(=O)c2ccc(CN3CCN(C)CC3)cc2)cc1Nc1nccc(-c2cccnc2)n1 | inconclusive: 97.1% | –
COc1cc2nc(N3CCCN(C)CC3)nc(NC3CCN(Cc4ccccc4)CC3)c2cc1OC | – | inconclusive: 37.2 µM [cytotoxic, single point]
N#Cc1ccc(NC(=O)Nc2ccccc2Br)c2n[nH]nc12 | – | inconclusive: 0.0042 µM [cytotoxic, full curve, poor fit]
Cc1ccc(-n2nc(C(C)(C)C)cc2NC(=O)Nc2ccc(OCCN3CCOCC3)c3ccccc23)cc1 | – | inconclusive: 4.18 µM [cytotoxic, full curve, poor fit]
CC(C)[C@H](CO)Nc1nc(Nc2ccc(C(=O)O)c(Cl)c2)c2ncn(C(C)C)c2n1 | inconclusive: 116% | –
Nc1nc2ccc(OC(F)(F)F)cc2s1 | – | inconclusive: 8.33 µM [cytotoxic, full curve, poor fit]
CC(=O)N(C)C1(c2ccccc2)CCN(CCC[C@]2(c3ccc(Cl)c(Cl)c3)CCCN(C(=O)c3ccccc3)C2)CC1 | – | inconclusive: 37.2 µM [cytotoxic, partial curve, poor fit]
O=C(N[C@@H](c1ccccc1)[C@@H]1CCCCN1)c1cccc(C(F)(F)F)c1Cl | – | inconclusive: 0.132 µM [cytotoxic, full curve, poor fit]
CC(C)c1ccc2c(c1)c(SC(C)(C)C)c(CC(C)(C)C(=O)O)n2Cc1ccc(Cl)cc1 | – | active: 18.7 µM
Cc1[nH]c(=O)c(C#N)cc1-c1ccc2nccn2c1 | inconclusive: 137% | –

Compound | viability, % of control | Potency
C[C@@H](O[C@H]1OCCN(Cc2n[nH]c(=O)[nH]2)[C@@H]1c1ccc(F)cc1)c1cc(C(F)(F)F)cc(C(F)(F)F)c1 | – | inconclusive: 14.8 µM [cytotoxic, partial curve, poor fit]
CC1=C[C@@H]2[C@@H]([C@@H](O)C[C@@]3(C)[C@H]2C[C@@H](C)[C@]3(O)C(=O)CO)[C@@]2(C)Cc3cnn(-c4ccccc4)c3C=C12 | – | active: 20.9 µM
COc1cc(Nc2ncc(F)c(Nc3ccc4c(n3)NC(=O)C(C)(C)O4)n2)cc(OC)c1OC | – | inconclusive: 20.9 µM [cytotoxic, partial curve, poor fit]
CCCn1c(=O)c2[nH]c(C34CC5CC3C[C@@H](C5)C4)nc2n(CCC)c1=O | – | inconclusive: 0.105 µM [cytotoxic, full curve, poor fit]
CC1=C(CO)C(=O)O[C@@H]([C@@H](C)[C@H]2CC[C@H]3[C@@H]4C[C@H]5O[C@]56[C@@H](O)C=CC(=O)[C@]6(C)[C@@H]4CC[C@]23C)C1 | – | active: 1.05 µM
O=C(O)[C@@H](c1ccc(OCc2ccc3ccccc3n2)cc1)C1CCCC1 | – | inconclusive: 0.0019 µM [rising, full curve, poor fit]
COc1ccc(-c2oc3cc(OC)ccc3c2C(=O)c2ccc(C#N)cc2)cc1 | – | inconclusive: 0.0166 µM [rising, full curve, poor fit]
CCOc1ccc(Cc2cc([C@@H]3O[C@H](CO)[C@@H](O)[C@H](O)[C@@H]3O)ccc2Cl)cc1 | – | inconclusive: 0.0833 µM [cytotoxic, full curve, poor fit]
CC(C)(C)OC(=O)CN(Cc1ccc(Cl)cc1)Cc1ccc([N+](=O)[O-])s1 | – | active: 7.43 µM
Cc1ccnc(NS(=O)(=O)c2ccc(NC(=O)Nc3ccc(S(=O)(=O)Nc4nccc(C)n4)cc3)cc2)n1 | – | inconclusive: 0.001 µM
O=C1C(Cl)=C(NCCN2CCOCC2)C(=O)c2ncccc21 | – | active: 3.72 µM
NC(CO)(CO)CCc1ccc(Sc2cccc(OCc3ccccc3)c2)cc1Cl | – | inconclusive: 37.2 µM [cytotoxic, partial curve, poor fit]
CN1C(=O)C(Cc2c[nH]c3ccccc23)NC1=S (stereo not given) | – | inconclusive: 0.0526 µM [cytotoxic, full curve, poor fit]
O=c1cc(CN2CCOCC2)occ1OCCCCCSc1ccnc2cc(C(F)(F)F)ccc12 | – | inconclusive: 5.9 µM [rising, partial curve, poor fit]
O=C(Nc1ccc(OC(F)(F)F)cc1)c1sccc1NCc1ccnc2ccccc12 | – | inconclusive: 23.5 µM [cytotoxic, single point]
OCCC#Cc1nc(-c2ccc(F)cc2)c(-c2ccncc2)n1CCCc1ccccc1 | – | inconclusive: 23.5 µM [cytotoxic, partial curve, poor fit]
O=C(Nc1ccccc1-c1cn2c(CN3CCNCC3)csc2n1)c1cnc2ccccc2n1 | – | inconclusive: 10.5 µM [cytotoxic, partial curve, poor fit]
OC(CN1CCC(Cc2ccc(F)cc2)CC1)c1ccc(Cl)cc1 (stereo not given) | – | inconclusive: 3.72 µM [cytotoxic, full curve, poor fit]
Nc1nccc(Oc2ccc(NC(=O)c3c[nH]cc(-c4ccc(F)cc4)c3=O)cc2F)c1Cl | – | inconclusive: 20.9 µM [cytotoxic, partial curve, poor fit]
CN(C)c1ccc(Nc2nc(N)n(C(=O)c3c(F)cccc3F)n2)cc1 | – | inconclusive: 2.64 µM [cytotoxic, full curve, poor fit]

Record cards, from the list above. Order of values: viability, % of control	Potency
CCCn1c(=O)c2[nH]c(C34CC5CC3C[C@@H](C5)C4)nc2n(CCC)c1=O in the list: –	inconclusive: 0.105 µM [cytotoxic, full curve, poor fit]
OCCC#Cc1nc(-c2ccc(F)cc2)c(-c2ccncc2)n1CCCc1ccccc1 in the list: –	inconclusive: 23.5 µM [cytotoxic, partial curve, poor fit]
O=c1cc(CN2CCOCC2)occ1OCCCCCSc1ccnc2cc(C(F)(F)F)ccc12 in the list: –	inconclusive: 5.9 µM [rising, partial curve, poor fit]
